PubChem BioAssay AID1224828 | NIAID – 2016
Assay: 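Knock-downs that increase or decrease LPS-induced p65 nuclear translocation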 (primary screen). System: mouse RAW264.7 G9 macrophage reporter cells (GFP-p65, Tnf promoter-mCherry). Knock-down reagent: siRNA pool against mouse genes, 100 nM. Time to read-out: 2 days siRNA transfection, then 40 min LPS before fixation. Conditions: LPS (Salmonella minnesota R595) at 10 ng/ml. Measurement: 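Microscopy ratio of nuclear to perinuclear-ring GFP-p65 signal, scaled to the plate median; gene score is the average of two replicate robust z-scores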. Scale: p65 translocation robust z-score: higher = more nuclear NF-kappaB p65 after LPS than the plate median; nuclear/cytoplasmic p65 ratio: higher = more nuclear NF-kappaB p65. Call rule: 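Active if robust z is above 3.3 (negative regulators) or below -1.56, the Tlr4 control median (positive regulators); activity score 50 or more; control wells not called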. Calls: active = hit (p65 shift raised or lowered); inactive = no clear change.
Here is one part, drawn at random, of about 17,000 deposited reagents. Over the whole deposit, 762 (4.5%) got an active call. 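Active calls include both raised and lowered p65 entry, mostly lowered; wells with fewer than 50 cells lack a z-score.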 Raw values vary from plate to plate and are shown uncorrected. The numbers tell different reagents against one gene apart.

gene knocked down	pool no.	p65 translocation robust z-score	nuclear/cytoplasmic p65 ratio, rep 1	nuclear/cytoplasmic p65 ratio, rep 2	low cell count flag	activity call
Gnrhr	1	0.76	1.66	1.65	enough cells to score	inactive
Pbld1	1	-0.98	1.41	1.31	enough cells to score	inactive
Nmnat3	1		1.35	1.27	fewer than 50 cells per well; well left out of scoring	inactive
Mcm4	1	-0.17	1.41	1.33	enough cells to score	inactive
Acss1	1	-0.03	1.6	1.68	enough cells to score	inactive
Sgtb	1	0.93	1.45	1.43	enough cells to score	inactive
Syne2	1	-2.61	1.08	1.23	enough cells to score	active
Hsp90ab1	1	-0.74	1.34	1.28	enough cells to score	inactive
Gabrg2	1	-0.32	1.37	1.35	enough cells to score	inactive
Mrgprx2	1	2.46	1.74	2.05	enough cells to score	inactive
Tor2a	1	-0.87	1.4	1.1	enough cells to score	inactive
Drc3	1		1.2	0	fewer than 50 cells per well; well left out of scoring	inactive
Arhgef1	1	-0.49	1.49	1.59	enough cells to score	inactive
Trim25	1	1.28	1.57	1.3	enough cells to score	inactive
Or2t1	1	1.47	1.86	1.59	enough cells to score	inactive
Ciao2b	1	0.01	1.65	1.35	enough cells to score	inactive
Snx30	1		1.13	1.47	fewer than 50 cells per well; well left out of scoring	inactive
Usp47	1	1.28	1.57	1.68	enough cells to score	inactive
Usp47	2	0.37	1.48	1.23	enough cells to score	inactive
Btbd10	1	0.99	1.64	1.74	enough cells to score	inactive
Srsf10	1	-1.37	1.24	1.21	enough cells to score	inactive
Wnt4	1	-0.65	1.37	1.56	enough cells to score	inactive
Lca5	1		1.46	1.46	fewer than 50 cells per well; well left out of scoring	inactive
Barhl1	1	-0.2	1.39	1.81	enough cells to score	inactive
Patj	1	-0.59	1.45	1.74	enough cells to score	inactive
Fnbp4	1	1.72	1.74	1.79	enough cells to score	inactive
Rhot1	1		1.66	1.18	fewer than 50 cells per well; well left out of scoring	inactive
BC004004	1	1.89	1.92	2.09	enough cells to score	inactive
Asic1	1	1.8	1.86	1.98	enough cells to score	inactive
9530009G21Rik	1	1.27	1.53	1.79	enough cells to score	inactive
Gstm1	1	-0.56	1.71	1.33	enough cells to score	inactive
Abhd2	1	0.16	1.77	1.51	enough cells to score	inactive
Krt25	1	0.34	1.32	1.24	enough cells to score	inactive
Pnma3	1		1.19	1.01	fewer than 50 cells per well; well left out of scoring	inactive
Abhd16a	1	0.2	1.54	1.96	enough cells to score	inactive
Dus3l	1	0.67	1.55	1.68	enough cells to score	inactive
Pou2af1	1	-0.48	1.52	1.26	enough cells to score	inactive
Pdzk1	1	0.8	1.57	1.5	enough cells to score	inactive
Alg11	1	-0.63	1.54	1.56	enough cells to score	inactive
Abca4	1	-0.12	1.72	1.47	enough cells to score	inactive
Crygs	1	0.64	1.59	1.44	enough cells to score	inactive
Pkp4	1	1.72	1.61	1.75	enough cells to score	inactive
Jpt1	1	-0.49	1.64	1.4	enough cells to score	inactive
Tgfbr1	1	-0.01	1.47	1.38	enough cells to score	inactive
Rac2	1	0.78	1.67	1.59	enough cells to score	inactive
Ift80	1		1.52	1.66	fewer than 50 cells per well; well left out of scoring	inactive
Cdkn2c	1	1.73	1.83	1.71	enough cells to score	inactive
A330070K13Rik	1		1.09	1.19	fewer than 50 cells per well; well left out of scoring	inactive
Tiparp	1	0.36	1.51	1.62	enough cells to score	inactive
Dnase2a	1	0.8	1.57	1.49	enough cells to score	inactive
Pnliprp2	1	-2.14	1.04	1.03	enough cells to score	active
Btbd9	1		1.12	1.25	fewer than 50 cells per well; well left out of scoring	inactive
Yaf2	1	-1.12	1.42	1.29	enough cells to score	inactive
Kif12	1	-0.58	1.46	1.25	enough cells to score	inactive
Or52e15	1	-1.25	1.29	1.12	enough cells to score	inactive
Wnt1	1	-0.19	1.56	1.51	enough cells to score	inactive
Ppp1r14b	1	1.45	1.66	1.63	enough cells to score	inactive
Dars2	1	-0.46	1.31	1.39	enough cells to score	inactive
Kirrel1	1	-0.39	1.57	1.32	enough cells to score	inactive
Kirrel1	2	0.51	1.5	1.63	enough cells to score	inactive
Srp68	1		1.26	1.15	fewer than 50 cells per well; well left out of scoring	inactive
Tpo	1	-0.2	1.45	1.51	enough cells to score	inactive
Timd4	1	0.76	1.6	1.73	enough cells to score	inactive
Or7a42	1		1.29	1.39	fewer than 50 cells per well; well left out of scoring	inactive
Tcl1b1	1		0	1.01	fewer than 50 cells per well; well left out of scoring	inactive
Speer2	1		1.37	1.17	fewer than 50 cells per well; well left out of scoring	inactive
Tsga10	1	1.2	1.55	1.36	enough cells to score	inactive
Zfp647	1		1.18	1.49	fewer than 50 cells per well; well left out of scoring	inactive
Slc7a5	1	-0.11	1.27	1.33	enough cells to score	inactive
Or52ae7	1	1.26	1.65	1.38	enough cells to score	inactive
Catsperg2	1	0.91	1.51	1.33	enough cells to score	inactive
Rhbdl1	1		1.37	1.13	fewer than 50 cells per well; well left out of scoring	inactive
Ackr4	1	-0.65	1.47	1.43	enough cells to score	inactive
Phaf1	1	0.5	1.65	1.93	enough cells to score	inactive
Or51ab3	1	0.4	1.59	1.24	enough cells to score	inactive

A stretch taken from the entries so far, as a working copy:
gene knocked down	pool no.	p65 translocation robust z-score	nuclear/cytoplasmic p65 ratio, rep 1	nuclear/cytoplasmic p65 ratio, rep 2	low cell count flag	activity call
Rhot1	1		1.66	1.18	fewer than 50 cells per well; well left out of scoring	inactive
BC004004	1	1.89	1.92	2.09	enough cells to score	inactive
Asic1	1	1.8	1.86	1.98	enough cells to score	inactive
9530009G21Rik	1	1.27	1.53	1.79	enough cells to score	inactive
Gstm1	1	-0.56	1.71	1.33	enough cells to score	inactive
Abhd2	1	0.16	1.77	1.51	enough cells to score	inactive
